# Measurements: publication PMC4208761, “Molecular Insights into the Interaction between Plasmodium falciparum Apical Membrane Antigen 1 and an Invasion-Inhibitory Peptide” (PLoS ONE, 2014)
# These are yes or no findings as the source states them, for the method shown.
# Experiments:
# [1] = target: 3D7 PfAMA1 (residue 104-442) with His tag not cleaved, for SEC and SAXS (Plasmodium falciparum 3D7) (UniProt Q7KQK5); test: SAXS; both purified
# [2] = target: 3D7 PfAMA1 (residue 104-442) with His tag not cleaved, for SEC and SAXS (Plasmodium falciparum 3D7) (UniProt Q7KQK5); test: SEC; both purified
# [3] = target: Domain I+II of 3D7 PfAMA1 (residue 104-442), immobilised for SPR (Plasmodium falciparum 3D7) (UniProt Q7KQK5); test: SPR; both purified
binding [3],Molecule,binding [1],binding [2]
–,"3D7 PfAMA1 (residue 104-442) with His tag not cleaved, for SEC and SAXS (from UniProt Q7KQK5 104-442) (domain or fragment)",no binding,no binding (tested: 200 µM)
no binding (tested: >100 µM),FLPLFSKFGSAM (N-terminally acetylated; C-terminally amidated) [R1_(5-16) R15A],–,–
no binding (tested: 10 µM),KFGSRMHILK (N-terminally acetylated; C-terminally amidated) [R1_(11-20)],–,–
no binding (tested: 10 µM),VFAEFLPLFSK (N-terminally acetylated; C-terminally amidated) [R1_(1-11)],–,–
no binding (tested: 10 µM),FLPLFSKFGS (N-terminally acetylated; C-terminally amidated) [R1_(5-14)],–,–
